Source: PubChem BioAssay AID1224826 (NIAID, 2016)
Test: 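Regulators of Tlr4 signalling leading to Tnf-alpha expression in macrophages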 (primary screen). Cells: RAW264.7 G9 macrophages from mouse bearing reporters for p65 (GFP) and the Tnf promoter (mCherry). Knock-down reagent: siRNA pool against mouse genes, 100 nM. Duration: 16 h of LPS stimulation, after 2 days of siRNA transfection. Treatment: bacterial lipopolysaccharide (Salmonella minnesota R595), 10 ng/ml. Read-out: 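Imaged Tnf reporter mCherry in nuclei, minus background, normalised per plate to the median and expressed as robust z-scores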. Reading the numbers: Tnf reporter robust z-score: higher = stronger Tnf promoter reporter signal after LPS; Tnf reporter intensity: higher = stronger Tnf promoter reporter signal. Hit rule: 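a well counts as active at a score of -1.3 or below (Tlr4 knock-down control median) or above 3 (raised signal); controls and wells holding fewer than 50 cells are excluded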. Meaning of the calls: active = Tnf reporter clearly lowered or raised; inactive = no clear change in Tnf reporter.
In all, the deposit lists about 17,000 reagents; below is a part drawn at random. About 1,110 of all reagents (6.6%) were called active. 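Active means lowered or raised reporter signal; replicate intensities are raw and not normalised per plate.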 Unmarked entries are inactive. The numbers tell different reagents against one gene apart.

no.	gene	reagent	Tnf reporter robust z-score	fewer than 50 cells in well	Tnf reporter intensity, replicate 1	Tnf reporter intensity, replicate 2
1	Abraxas1	1	0.42	enough cells in well	212	158
2	Abraxas1	2	-0.25	enough cells in well	138	61.5
3	Tepsin	1		fewer than 50 cells per well; well left out of calls	45.6	23.1
4	Or11h6	1	-1	enough cells in well	67	47.5
5	Tbc1d16	1	-0.36	enough cells in well	196	165
6	1700030K09Rik	1		fewer than 50 cells per well; well left out of calls	219	128
7	Acss2	1	2.55	enough cells in well	333	293
8	Dgat1	1	-1.17	enough cells in well	142	123
9	Dus3l	1	-0.92	enough cells in well	113	106
10	Slc6a6	1		fewer than 50 cells per well; well left out of calls	46.5	25.3
11	Prtn3	1	2.4	enough cells in well	277	191
12	Vps4b	1	0.45	enough cells in well	147	94.4
13	Olfr908	1	-0.52	enough cells in well	124	58.2
14	Pter	1		fewer than 50 cells per well; well left out of calls	15.4	52.5
15	Egfl6	1	-0.23	enough cells in well	203	221
16	Gstm4	1	-0.91	enough cells in well	150	127

The list goes on; the last 2 above are carried over.
no.	gene	reagent	Tnf reporter robust z-score	fewer than 50 cells in well	Tnf reporter intensity, replicate 1	Tnf reporter intensity, replicate 2
15	Egfl6	1	-0.23	enough cells in well	203	221
16	Gstm4	1	-0.91	enough cells in well	150	127
17	Dnajc14	1	-0.99	enough cells in well	87.8	125
18	Trappc4	1	2.72	enough cells in well	208	193
19	Or4k15b	1	2.46	enough cells in well	206	182
20	Trpv4	1	0.31	enough cells in well	274	229
21	Nefh	1	-0.13	enough cells in well	282	172
22	Usp8	1	2.02	enough cells in well	394	376
23	Lmbr1l	1	-0.52	enough cells in well	210	168
24	Zfp830	1		fewer than 50 cells per well; well left out of calls	84.5	57.2
25	Igflr1	1	-1.43 (active)	enough cells in well	96.7	76.7
26	Ggta1	1	-1.5 (active)	enough cells in well	131	62.2
27	Ube2f	1	-0.71	enough cells in well	191	74.7
28	Ensa	1	-0.43	enough cells in well	219	112
29	Exosc6	1	-2.01 (active)	enough cells in well	82.7	57.1
30	Plekhg6	1	-0.97	enough cells in well	101	104
31	Garin1b	1	0.08	enough cells in well	259	164
32	Pramel4	1	-0.42	enough cells in well	115	107
33	Pramel4	2	-0.31	enough cells in well	117	115
34	Zfp410	1	0.24	enough cells in well	178	213
35	Duox2	1	-0.06	enough cells in well	178	159
36	Or4k52	1	-0.78	enough cells in well	151	76.1
37	Man2b2	1	-1.09	enough cells in well	166	131
38	Gpr143	1	-0.74	enough cells in well	130	277
39	Adgrl1	1	-0.21	enough cells in well	225	231
40	Cilp	1	-1.1	enough cells in well	91.9	126
